Laboratory results as given in patent US6445486B1, “Electroactive materials and beneficial agents having a solubilizing moiety” (Gentex Corporation, priority 1999, dated 2002).
At least one read-out could not be matched to a standard name with certainty. At least one compound was matched to its structure with a doubt left.

Experiment: Solubility at saturation in the solvent of interest, calculated from UV-VIS spectra of saturated solutions
Settings: propylene carbonate

CC[N+](CC)(CC)CCN1c2ccccc2N(CC[N+](CC)(CC)CC)c2ccccc21.F[B-](F)(F)F.F[B-](F)(F)F [5,10-Bis-2-(triethylammonium)ethylphenazine [BF4]2]
increased solubility relative to 5,10-Dihydro-5,10-dimethylphenazine (relative to 5,10-Dihydro-5,10-dimethylphenazine (void of a solubilizing moiety)): approximately a factor of two

CC[N+](CC)(CC)CCN1c2ccc(C)cc2N(CC[N+](CC)(CC)CC)c2ccc(C)cc21.F[B-](F)(F)F.F[B-](F)(F)F [2,7-Dimethyl-5,10-bis-2-(triethylammonium)ethylphenazine [BF4]2]
increased solubility relative to 2,5,7,10-Tetramethyl-5,10-dihydrophenazine (relative to 2,5,7,10-Tetramethyl-5,10-dihydrophenazine (void of a solubilizing moiety)): approximately a factor of four and one half

CC[N+](CC)(CC)CCCCn1c(=NN=c2sc3ccccc3n2C)sc2ccccc21.F[B-](F)(F)F [triethyl-(4-{2-[(3-methyl-3H-benzothiazol-2-ylidene)-hydrazono]-benzothiazol-3-yl}-butyl)-ammonium tetrafluoroborate]
increased solubility relative to N,N′-Bis-(3-ethyl-3H-benzothiazol-2-ylidene)-hydrazine (relative to N,N′-Bis-(3-ethyl-3H-benzothiazol-2-ylidene)-hydrazine (void of a solubilizing moiety)): almost a factor of four
